In article doi:10.1101/679415:
Results are given in words; binding and its absence hold for the method and conditions named. Binding seen in cells or lysates may run through a third protein. Some results given as binding are weak or reduced against the parent protein; the word gives no strength. Where a sequence is shown, tags or fusion partners need not be part of it.

Target: T1, FLAG-tagged C. elegans USP-46 (C. elegans) (UniProt P34547)
T1 sequence: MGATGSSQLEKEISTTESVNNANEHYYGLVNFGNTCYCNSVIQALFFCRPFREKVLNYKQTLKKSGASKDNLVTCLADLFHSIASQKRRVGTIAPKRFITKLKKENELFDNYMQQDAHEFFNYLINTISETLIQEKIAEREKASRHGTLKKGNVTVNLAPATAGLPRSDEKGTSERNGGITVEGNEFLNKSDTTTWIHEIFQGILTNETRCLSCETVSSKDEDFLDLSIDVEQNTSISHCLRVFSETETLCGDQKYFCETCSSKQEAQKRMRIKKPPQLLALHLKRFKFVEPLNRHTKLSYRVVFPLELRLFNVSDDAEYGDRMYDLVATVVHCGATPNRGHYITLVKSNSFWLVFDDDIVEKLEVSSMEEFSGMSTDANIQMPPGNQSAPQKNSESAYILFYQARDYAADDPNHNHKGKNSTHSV
Test: co-IP

B1: Myc-WDR-48 (wild type, C. elegans) (protein, UniProt Q20059 1-683)
chain: MSSCVNTSQTGPKKKISFIIRDEHEYSNRSAVSALQYDAQNGRLFTGGSDTIIRTWSVPHHKDAFSARGGVRSPGKNSPVQYQGSLEQHTDWVNDMILCGHGKILISASNDTTVKVWNIERDNKHGFIDCIRTHKDYVSCLAYAPIVEKAVSASFDHNIFVYDINANFKTVNNLIGCKDSIYSLATTPNLSLVLGAGTEKCIRLFDPRTNEKIMKLRGHTDNVRALVVNDDGTRALSAGSDATIRLWDIGQQRCIATCIAHEEGVWTLQVDSSFTTVYSAGKDKMVVKTPLYDFTKSQLLFKEEAPVKKLLLSEKDNPVSLWVGTWKSDIKRWSIRPSAQLSIGGDEDGPSTSNANHSVSASSSPPVTFKYIRVKDQKGQQSTPELVIPGAPAIKKHAMLSDKRHVLTRDSDGNVALYDVLAARKIKDYGKRIFEEVVDENSRQVYIPSWFVVDSKSGMLQITLDELDALSSWLSSKDAGFDDNDRETKLNYGGMMLRSLFERWPPCKMTNVDAADADDVQKATLNFISLPEHTPLIICEGNGRPLYRLLVGDAGKEFEANELAQIAPMWVIDAIERNQLPKFNKMPFYLLPHPSTNPKQPKKDRLSATEMLQVKKVMEHVYEKILSTNDDITVGSIPLNQIHTKMEMYCNDQRLEPDMDLRTVKHLYWKQSGELLLHYKPVK
Q: Which binding does the source give for B1 here?
A: binds
